Paper PMC7760575
Results are given in words; binding and its absence hold for the method and conditions named. Some results given as binding are weak or reduced against the parent protein; the word gives no strength. Tags and fused reporters may be left off the sequences shown.

Molecular target: T1, GST-Laf1 (S. cerevisiae) (UniProt Q03177)
T1 sequence: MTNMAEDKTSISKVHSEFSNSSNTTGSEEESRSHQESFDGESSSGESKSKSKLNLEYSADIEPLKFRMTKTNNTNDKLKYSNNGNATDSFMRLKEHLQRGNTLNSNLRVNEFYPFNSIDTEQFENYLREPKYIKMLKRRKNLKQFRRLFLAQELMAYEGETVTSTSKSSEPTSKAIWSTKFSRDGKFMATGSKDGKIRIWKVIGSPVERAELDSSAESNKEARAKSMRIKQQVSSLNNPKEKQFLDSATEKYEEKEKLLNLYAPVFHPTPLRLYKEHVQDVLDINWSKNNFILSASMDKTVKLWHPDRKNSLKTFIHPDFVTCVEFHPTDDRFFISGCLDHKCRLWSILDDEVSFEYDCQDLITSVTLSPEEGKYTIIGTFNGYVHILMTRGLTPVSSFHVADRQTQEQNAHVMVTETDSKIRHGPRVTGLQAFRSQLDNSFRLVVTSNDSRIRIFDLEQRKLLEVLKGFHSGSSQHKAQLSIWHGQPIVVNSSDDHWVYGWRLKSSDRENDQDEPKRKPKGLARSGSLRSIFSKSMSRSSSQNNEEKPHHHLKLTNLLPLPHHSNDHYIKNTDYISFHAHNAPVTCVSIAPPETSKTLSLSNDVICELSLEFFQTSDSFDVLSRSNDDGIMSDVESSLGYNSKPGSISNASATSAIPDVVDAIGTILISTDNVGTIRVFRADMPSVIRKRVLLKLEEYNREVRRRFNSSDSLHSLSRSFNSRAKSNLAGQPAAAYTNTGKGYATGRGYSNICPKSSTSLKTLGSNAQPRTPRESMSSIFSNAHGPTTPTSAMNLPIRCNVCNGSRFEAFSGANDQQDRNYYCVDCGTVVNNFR
Assay: pull-down; GST fusion (bait) and His6-tagged Lam fragment incubated 1 h at 4 °C, complexes on glutathione-agarose beads; binding buffer 81 mM NaCl, 4.5 mM KCl, 1.35 mM MgCl2, 0.09% Triton X-100, 0.1 mg/mL BSA, 20 mM HEPES pH 7.5; four washes; immunoblot (anti-His, anti-GST); both purified

- binding: binds weakly
B1: Lam2(633-1259)-(His)6 (domain or fragment, UniProt Q06681 633-1259)
chain: FKLEGIEYASEKKNSEFHTLFKDCDINPNEKLIVDHSCALSRDILLQGRMYISDAHIGFFSNILGWVSTVFIPFKEIVQIEKKTTAGIFPNGIVIDTLHTKYIFASFMSRDATFDLITDVWNQIILGKKYRNGFGNNDDGTISDSSSAFFDDSDDNDDDGDLDDDDPDINSTDMTSSDDIDADVFNESNDLGKNQKSTNYLLGPNKHSPTTADFKPSNNDHLVIEANINAPLGKVVNLLYGEDVSYYERILKAQKNFEISPIPNNFLTKKIRDYAYTKPLSGSIGPSKTKCLITDTLEHYDLEDYVKVLSITKNPDVPSGNIFSVKTVFLFSWDKNNSTKLTVYNSVDWTGKSWIKSMIEKGTFDGVADTTKIMISEIKKILSDEDSNINSKHQASNNESEEEIINLPTIGPPVHDPTEPDFQKGKDDTVIDEKINIPVPLGTVFSLLYGDDTSYIKKIIENQNNFNVCDIPKFVNNAREITYTKKLNNSFGPKQTKCIVTETIEHMDLNSFFMVKQIVRSPDVPYGSSFSVHTRFFYSWGDHNTTNMKVVTNVVWTGKSMLKGTIEKGSIDGQRSSTKQLVDDLKKIISNASSTKKKSRRRGKTVNKRKSSPSTIKNEKNEENFED
